Reference: PubChem BioAssay AID743454 (Peter MacCallum Cancer Centre, 2014)
Test: 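Genes whose loss kills vorinostat-resistant colon cancer cells under vorinostat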 (primary screen). Cell system: human HCT116-VR colon cancer cells, selected for vorinostat resistance. Reagents: siRNA pool against human genes, 40 nM siRNA pool. Duration: vorinostat for 24 h, read-out about 72 h after transfection. Conditions: vorinostat at 2.5 µM final. Detection: 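Two measures, CellTiter-Fluor viability and luminescent caspase 3/7 activity, each as fold change against same-plate mock wells, mean of duplicates, then screen-wide robust z-score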. Direction: viability robust z-score: higher = more viable cells than screen typical; caspase robust z-score: higher = more caspase 3/7 activity than screen typical. Rule for the call: 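a knock-down is a hit when classed RV1 or RV2 for lowered viability, or CA1 or CA2 for caspase activation; those lethal without drug were dropped; hits were retested singly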.
The whole screen tested about 18,000 reagents; this is a part drawn at random. 450 of all reagents (2.5%) count as active. 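Single biological run; no consistent viability z cut-off exists, so the class columns, not z-scores, define the calls.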

no.	target	viability hit class	caspase hit class	viability robust z-score	caspase robust z-score	Call
1	WBP11 (WW domain binding protein 11)	no change	no change	-3.08	-1.25	inactive
2	LINC01565 (long independently transcribed non-coding RNA 1565)	no change	no change	-0.24	-0.18	inactive
3	PEBP4 (phosphatidylethanolamine binding protein 4)	no change	no change	-0.4	-0.46	inactive
4	FRMD5 (FERM domain containing 5)	no change	no change	-0.96	-0.52	inactive
5	MKRN3 (makorin ring finger protein 3)	no change	no change	1.54	-0.7	inactive
6	TAC3 (tachykinin precursor 3)	no change	no change	0.08	0.25	inactive
7	PF4V1 (platelet factor 4 variant 1)	no change	no change	0.76	-0.04	inactive
8	GALNT5 (polypeptide N-acetylgalactosaminyltransferase 5)	no change	no change	-0.12	-0.62	inactive
9	FAAH2 (fatty acid amide hydrolase 2)	no change	no change	0.37	-0.98	inactive
10	B4GALT3 (beta-1,4-galactosyltransferase 3)	no change	no change	0.14	0.84	inactive
11	TMCC3 (transmembrane and coiled-coil domain family 3)	no change	no change	-0.5	1.72	inactive
12	PTPN18 (protein tyrosine phosphatase non-receptor type 18)	no change	no change	0.66	0.06	inactive
13	CAMK1 (calcium/calmodulin dependent protein kinase I)	RV2 (reduced viability)	no change	-4.25	4.25	active
14	NME2 (NME/NM23 nucleoside diphosphate kinase 2)	no change	no change	0.68	0.58	inactive
15	ZBTB7B (zinc finger and BTB domain containing 7B)	no change	no change	0.76	-0.02	inactive
16	PPP2CA (protein phosphatase 2 catalytic subunit alpha)	no change	no change	-1.44	2.69	inactive
17	MRRF (mitochondrial ribosome recycling factor)	no change	no change	0.58	-0.9	inactive
18	MRTO4 (MRT4 homolog, ribosome maturation factor)	no change	no change	-1.4	0.32	inactive
19	CCDC42 (coiled-coil domain containing 42)	no change	no change	-0.18	-0.8	inactive
20	OR52L1 (olfactory receptor family 52 subfamily L member 1)	no change	no change	0.37	0.3	inactive
21	SLC34A2	no change	no change	0.8	-0.32	inactive
22	RHOT1 (ras homolog family member T1)	no change	no change	1.23	-0.44	inactive
23	SULT1B1 (sulfotransferase family 1B member 1)	no change	no change	0.16	1.47	inactive
24	YTHDC1 (YTH N6-methyladenosine RNA binding protein C1)	no change	no change	-2.06	4.82	inactive
25	MST1 (macrophage stimulating 1)	no change	no change	0.03	2.28	inactive
26	EREG (epiregulin)	no change	no change	-1.82	1.29	inactive
27	VEPH1 (ventricular zone expressed PH domain containing 1)	no change	no change	0.1	0.35	inactive
28	PPIL6 (peptidylprolyl isomerase like 6)	no change	no change	1.05	0.01	inactive
29	FARP2 (FERM, ARH/RhoGEF and pleckstrin domain protein 2)	no change	no change	0.7	-0.58	inactive
30	EIF2B3 (eukaryotic translation initiation factor 2B subunit gamma)	no change	no change	-2.83	0.08	inactive
31	PODXL2 (podocalyxin like 2)	no change	no change	-1.14	3.79	inactive
32	FCF1 (FCF1 rRNA-processing protein)	no change	no change	-2.21	-1.27	inactive
33	SOCS2 (suppressor of cytokine signaling 2)	no change	no change	-0.88	-0.27	inactive

Continued (5 carried over from the part before).
no.	target	viability hit class	caspase hit class	viability robust z-score	caspase robust z-score	Call
29	FARP2 (FERM, ARH/RhoGEF and pleckstrin domain protein 2)	no change	no change	0.7	-0.58	inactive
30	EIF2B3 (eukaryotic translation initiation factor 2B subunit gamma)	no change	no change	-2.83	0.08	inactive
31	PODXL2 (podocalyxin like 2)	no change	no change	-1.14	3.79	inactive
32	FCF1 (FCF1 rRNA-processing protein)	no change	no change	-2.21	-1.27	inactive
33	SOCS2 (suppressor of cytokine signaling 2)	no change	no change	-0.88	-0.27	inactive
34	TUBGCP6 (tubulin gamma complex component 6)	no change	no change	-0.36	0.8	inactive
35	BARD1 (BRCA1 associated RING domain 1)	no change	no change	-1.09	-0.36	inactive
36	RASSF8 (Ras association domain family member 8)	no change	no change	-2.29	-0.02	inactive
37	SHFL (shiftless antiviral inhibitor of ribosomal frameshifting)	no change	no change	-0.08	-0.71	inactive
38	CD38 (CD38 molecule)	no change	no change	0	0.32	inactive
39	SMAD4 (SMAD family member 4)	no change	no change	-0.08	0.08	inactive
40	ZFP90 (ZFP90 zinc finger protein)	no change	no change	-1.19	0.07	inactive
41	BRAT1 (BRCA1 associated ATM activator 1)	no change	no change	0.27	0.02	inactive
42	TSKS (testis specific serine kinase substrate)	no change	no change	0.24	1.62	inactive
43	TNFAIP1 (TNF alpha induced protein 1)	no change	no change	1.1	-0.38	inactive
44	DPAGT1 (dolichyl-phosphate N-acetylglucosaminephosphotransferase 1)	no change	no change	0.4	1.39	inactive
45	PRR7 (proline rich 7, synaptic)	no change	no change	0.13	3.32	inactive
46	TECPR1 (tectonin beta-propeller repeat containing 1)	no change	no change	-0.64	0.24	inactive
47	GLT6D1 (glycosyltransferase 6 domain containing 1)	no change	no change	0.04	-0.62	inactive
48	CDH24 (cadherin 24)	no change	no change	-0.73	0.49	inactive
49	RPS6KA5 (ribosomal protein S6 kinase A5)	no change	no change	-0.88	-1.36	inactive
50	NELFCD (negative elongation factor complex member C/D)	no change	no change	-0.66	-0.21	inactive
51	NUMB (NUMB endocytic adaptor protein)	no change	no change	0.42	-0.44	inactive
52	CD48 (CD48 molecule)	no change	no change	-0.74	-0.07	inactive
53	SPOCK2	no change	no change	-0.12	0.54	inactive
54	FMR1NB (FMR1 neighbor)	no change	no change	-1.5	-1.04	inactive
55	C9orf43 (chromosome 9 open reading frame 43)	no change	no change	0.3	-0.39	inactive
56	PCCB (propionyl-CoA carboxylase subunit beta)	no change	no change	0.62	-0.78	inactive
57	METRN (meteorin, glial cell differentiation regulator)	no change	no change	0.46	0.6	inactive
